According to paper PMC7139830, “Drug Conjugation Induced Modulation of Structural and Membrane Interaction Features of Cationic Cell-Permeable Peptides” (International Journal of Molecular Sciences, 2020):

Type: physicochemical
Details: for Degree of penetration (ΔΠ), increase of surface pressure: DPPC monolayer compressed to 20 mN/m, double-distilled water subphase, 2 µM peptide, after 1 h, accuracy ±0.5 mN/m; for Change of membrane affinity to DPPC monolayer on INH conjugation (conjugate vs native peptide): 20 mN/m, 2 µM, 1 h

CM15
Degree of penetration (ΔΠ), increase of surface pressure: > 4 mN/m
Change of membrane affinity to DPPC monolayer on INH conjugation (conjugate vs native peptide): slightly decreasing membrane affinity

GIGKFLHSAKKFGKAFVGEIMNS [Magainin II, antimicrobial peptide isolated from amphibians]
Degree of penetration (ΔΠ), increase of surface pressure: > 4 mN/m

KRLFKKLLFSLRKY [Dhvar4, synthetic derivative of Histatin, a salivary histidine-rich cationic AMP]
Change of membrane affinity to DPPC monolayer on INH conjugation (conjugate vs native peptide): penetration increased

RAGLQFPVGRVHRLLRK [Buforin II (5–21), antimicrobial peptide isolated from amphibians]
Degree of penetration (ΔΠ), increase of surface pressure: < 2 mN/m
Change of membrane affinity to DPPC monolayer on INH conjugation (conjugate vs native peptide): penetration increased

TKPKGTKPKGTKPKGTKPKG [OT20, synthetic oligomer of Tuftsin, cationic carrier peptide]
Degree of penetration (ΔΠ), increase of surface pressure: < 2 mN/m
Change of membrane affinity to DPPC monolayer on INH conjugation (conjugate vs native peptide): slightly decreasing membrane affinity
